Strings that start with PEPTIDE1 are HELM notation: dots part the residues, brackets hold end groups and non-standard residues.
Experiments:
[1] = general procedure: Fmoc solid-phase peptide synthesis; Rink Amide MBHA resin (100-200 mesh, 0.57 or […]) for C-terminal amides; pre-loaded Wang resin for C-terminal ac; HBTU/DIEA; PyAOP/DIEA for some couplings; HATU in difficult regions; Oxyma/DIC w; conditions: whole synthesis, TFA salt; for final HPLC purity: analytical RP-HPLC; for isolated yield: overall, scale 0.13 mmol
[2] = general procedure: Fmoc solid-phase peptide synthesis; Rink Amide MBHA (100-200 mesh, […]); HBTU/DIEA; PyAOP/DIEA for some couplings; HATU in difficult regions; Oxyma/DIC w; conditions: whole synthesis, scale 0.13 mmol, TFA salt

For “PEPTIDE1{[XIVA].E.T.H.[XDpa].P.A.I.[dK].[XbhPhe].[XKAhx_Palm].[am]}$$$$V2.0”, the “final HPLC purity” value ([1]; run 1) was greater than 95%, the “final HPLC purity” value ([1]; run 2) was 97% and the isolated yield [1] was 12.2%. The isolated mass [2] was 27.74 mg.

With “Isovaleric acid-Glu-Thr-His-DIP-Pro-Ala-Ile-Lys(Ahx-Palm)-bhF-NH2” the “final HPLC purity” value ([1]; run 1) was greater than 95%, the “final HPLC purity” value ([1]; run 2) was 97% and the isolated yield [1] was 21.5%. The isolated mass [2] was 45.31 mg.

— patent US20240066131A1 (Protagonist Therapeutics, Inc., priority 2020, published 2024)
